# The shares of active, inactive and inconclusive entries below differ from those in the screen. The source made the active and inactive calls.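 Rule for the calls: active = signal loss with fitted half-maximal concentration at or below twice the top valid tested dose in every test run; inconclusive = runs disagree, flat 30 to 70% signal loss, or poor fit; inactive = all runs flat, opposite direction, or potency beyond limit.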
# Assay: general mammalian cell viability loss – inhibitor set, cherry-pick, set 2, cytotoxicity control for miR-122 modulator project, dose response (AID 720697);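 note: 0% = median of neutral control wells and -100% = MG132 positive control wells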
# Details: HEK293T viability, CellTiter-Glo luminescence, 48 h; at 26 µM (top of the series) unless noted
row,SMILES,"activity change, negative = cytotoxicity"
1,CCCNC(=O)C[C@@H]1CC[C@@H]2[C@@H](COc3ccc(NC(=O)c4ccc(C(F)(F)F)cc4)cc3C(=O)N2C)O1,inconclusive: -38%
2,COc1ccc(S(=O)(=O)Nc2ccc3c(c2)CC(=O)N([C@@H](C)CO)C[C@@H](C)[C@H](CN(C)Cc2ccc(-c4ccccc4)cc2)O3)cc1,inactive: -43.3%
3,C[C@H](CO)N1C[C@H](C)[C@@H](CN(C)C(=O)C2CCOCC2)Oc2cc(C#Cc3ccncc3)ccc2S1(=O)=O,inconclusive: -47.4%
4,COC(=O)C[C@@H]1CC[C@@H]2[C@H](COc3ccc(NC(=O)c4ccc(F)c(F)c4)cc3C(=O)N2C)O1,inconclusive: -30.4%
5,CN1C(=O)c2cc(NC(=O)c3cccs3)ccc2OC[C@@H]2O[C@@H](CC(=O)NCCN3CCCCC3)CC[C@H]21,inconclusive: -42.9%
6,C/C=C/c1ccc([C@H]2[C@@H](CO)N(C(=O)NC(C)C)[C@H]2CN(C)C(=O)CC)cc1,inconclusive: -52.9%
7,Cc1cc(C(=O)Nc2ccc3c(c2)C(=O)N(C)[C@H]2CC[C@@H](CC(=O)N[C@@H](C)c4ccccc4)O[C@H]2CO3)no1,inconclusive: -49.2% [at 23.5 µM]
8,CCC(=O)N(C)C[C@H]1Oc2cc(C#Cc3ccccc3)ccc2S(=O)(=O)N([C@@H](C)CO)C[C@H]1C,inconclusive: -56.1%
9,CO[C@H]1CN(C)C(=O)c2cc(NC(C)=O)ccc2OC[C@@H](C)N(C(=O)c2ccccn2)C[C@H]1C,inactive: -42.3%
10,CC(=O)N1[C@H](CO)[C@H](c2ccccc2)[C@@H]1CN(C(=O)c1ccc(F)cc1)C(C)C,inconclusive: -44.1% [at 23.5 µM]

# A draw from above in order of formula weight, largest number first:
row,SMILES,"activity change, negative = cytotoxicity"
3,C[C@H](CO)N1C[C@H](C)[C@@H](CN(C)C(=O)C2CCOCC2)Oc2cc(C#Cc3ccncc3)ccc2S1(=O)=O,inconclusive: -47.4%
8,CCC(=O)N(C)C[C@H]1Oc2cc(C#Cc3ccccc3)ccc2S(=O)(=O)N([C@@H](C)CO)C[C@H]1C,inconclusive: -56.1%
9,CO[C@H]1CN(C)C(=O)c2cc(NC(C)=O)ccc2OC[C@@H](C)N(C(=O)c2ccccn2)C[C@H]1C,inactive: -42.3%
